The source of these data is paper doi:10.1101/2024.09.02.610784.

For the assay, the target named is T1, Arabidopsis thaliana TOPLESS (Arabidopsis thaliana) (UniProt Q94AI7).
T1 sequence: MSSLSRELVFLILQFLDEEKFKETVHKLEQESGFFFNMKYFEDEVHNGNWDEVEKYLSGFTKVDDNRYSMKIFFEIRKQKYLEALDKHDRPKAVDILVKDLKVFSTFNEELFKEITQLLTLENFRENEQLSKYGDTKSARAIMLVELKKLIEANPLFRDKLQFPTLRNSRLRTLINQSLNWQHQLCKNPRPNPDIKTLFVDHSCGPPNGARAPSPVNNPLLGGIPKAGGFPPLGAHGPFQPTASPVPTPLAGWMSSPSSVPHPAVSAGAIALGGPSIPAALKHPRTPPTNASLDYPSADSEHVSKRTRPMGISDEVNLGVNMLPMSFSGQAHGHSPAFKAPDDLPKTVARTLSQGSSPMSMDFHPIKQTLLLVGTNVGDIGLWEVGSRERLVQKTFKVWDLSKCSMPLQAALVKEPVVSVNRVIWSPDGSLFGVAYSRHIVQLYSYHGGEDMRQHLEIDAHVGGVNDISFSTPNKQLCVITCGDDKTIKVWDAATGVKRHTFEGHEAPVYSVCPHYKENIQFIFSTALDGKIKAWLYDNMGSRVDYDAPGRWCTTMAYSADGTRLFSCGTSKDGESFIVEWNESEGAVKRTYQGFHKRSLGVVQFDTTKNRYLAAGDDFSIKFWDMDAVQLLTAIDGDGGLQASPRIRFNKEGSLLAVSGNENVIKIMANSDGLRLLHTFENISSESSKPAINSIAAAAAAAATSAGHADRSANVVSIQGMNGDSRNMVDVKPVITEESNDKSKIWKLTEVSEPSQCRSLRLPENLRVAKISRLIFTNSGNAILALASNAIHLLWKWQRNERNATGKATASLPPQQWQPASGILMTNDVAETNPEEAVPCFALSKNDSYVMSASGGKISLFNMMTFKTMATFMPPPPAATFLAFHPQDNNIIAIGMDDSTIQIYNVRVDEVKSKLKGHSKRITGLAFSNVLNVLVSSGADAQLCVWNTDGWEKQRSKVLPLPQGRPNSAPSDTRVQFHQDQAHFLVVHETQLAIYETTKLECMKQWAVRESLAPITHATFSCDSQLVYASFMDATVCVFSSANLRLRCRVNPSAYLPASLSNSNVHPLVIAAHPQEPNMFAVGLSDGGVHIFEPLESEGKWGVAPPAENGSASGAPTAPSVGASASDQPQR
The experiment in a line: two-hybrid.

No constants are given. Whether binding was seen depends on the method and setting. Some entries that bind do so weakly or less than the wild type.

B1: Arabidopsis thaliana ARF4 (protein, UniProt Q9ZTX9 1-788)
chain: MEFDLNTEIAEVEEEENDDVGVGVGGGTRIDKGRLGISPSSSSSCSSGSSSSSSSTGSASSIYSELWHACAGPLTCLPKKGNVVVYFPQGHLEQDAMVSYSSPLEIPKFDLNPQIVCRVVNVQLLANKDTDEVYTQVTLLPLQEFSMLNGEGKEVKELGGEEERNGSSSVKRTPHMFCKTLTASDTSTHGGFSVPRRAAEDCFAPLDYKQQRPSQELIAKDLHGVEWKFRHIYRGQPRRHLLTTGWSIFVSQKNLVSGDAVLFLRDEGGELRLGIRRAARPRNGLPDSIIEKNSCSNILSLVANAVSTKSMFHVFYSPRATHAEFVIPYEKYITSIRSPVCIGTRFRMRFEMDDSPERRCAGVVTGVCDLDPYRWPNSKWRCLLVRWDESFVSDHQERVSPWEIDPSVSLPHLSIQSSPRPKRPWAGLLDTTPPGNPITKRGGFLDFEESVRPSKVLQGQENIGSASPSQGFDVMNRRILDFAMQSHANPVLVSSRVKDRFGEFVDATGVNPACSGVMDLDRFPRVLQGQEICSLKSFPQFAGFSPAAAPNPFAYQANKSSYYPLALHGIRSTHVPYQNPYNAGNQSSGPPSRAINFGEETRKFDAQNEGGLPNNVTADLPFKIDMMGKQKGSELNMNASSGCKLFGFSLPVETPASKPQSSSKRICTKVHKQGSQVGRAIDLSRLNGYDDLLMELERLFNMEGLLRDPEKGWRILYTDSENDMMVVGDDPWHDFCNVVWKIHLYTKEEVENANDDNKSCLEQAALMMEASKSSSVSQPDSSPTITRV
For the molecule B1, the binding result is “binds”.
